We go through four compounds from PMC8916034, “Abubidentin A, New Oleanane-type Triterpene Ester from Abutilon bidentatum and its antioxidant, cholinesterase and antimicrobial activities” (PeerJ, 2022).

Where “and” joins values, the source holds several entries; their conditions need not be identical. Equal values may be shown once.

The nature of this data set: ABTS radical cation decolorization assay. The following applies: Conc. 20 µg/mL; single trials A, B, C. Here is the method: ABTS radical cation decolorization assay was performed to measure the total antioxidant activity of the samples by obeying the previously described method ([Re et al., 1999]). In brief, ABTS^•+ radicals were generated by treating 7 mM ABTS^+ aqueous solution with 2.4 mM potassium persulfate for 12-16 h at room temperature in the dark. Prior to use, this solution was diluted with ethanol (approx. 1:89 v/v) and equilibrated to […] absorbance at 734 nm to obtain the working solution. Afterward, a 1.0 mL of working solution was reacted with 20 µL (1 mg mL^−1) samples and incubated for 30 min. After incubation, samples were scanned at 734 nm absorbance wavelength and the percentage of inhibition was determined. Ascorbic acid (AA) was applied reference standard.
On to `CCCCCCCCCCCCCCCCCCCCC(O)C(=O)O` (stereo not shown) [Compound 1, 2-hydroxydocosanoic acid], for which the “Abs (ABTS+ activity)” value was 0.685 and 0.680 and 0.670.
As to `O=C1O[C@H]([C@@H](O)CO)C(O)=C1O` [Ascorbic acid, ascorbic acid, reference compound], the “Abs (ABTS+ activity)” value is 0.512 and 0.515 and 0.518.
For `CC[C@@H](/C=C/[C@@H](C)C1CCC2C3CCC4C[C@@H](O)CC[C@]4(C)C3CC[C@@]21C)C(C)C` (stereo partly drawn) [Compound 2, stigmasta-22-ene-3-β-ol] the value was 0.578 and 0.572 and 0.574.
As for `CCCCCCCCCCCCCCCCCCCCCCCCCCCCCCCC(=O)O[C@H]1C[C@H](O)[C@]2(C)C3=CC=C4[C@@H]5CC(CO)(C(=O)O)CC[C@]5(C)CC[C@@]4(C)[C@]3(C)CCC2C1(C)C` (stereo partly drawn) [Compound 3, 1α,3β,30-Trihydroxy-29-carboxy-olean-9(11), 12-diene-3-dotriacontanoate], the “Abs (ABTS+ activity)” value was 0.515 and 0.512 and 0.489.
